What all share (experiment): split reporter
Test [1] deals with CESA3 N-terminal region (N to VR1) (Arabidopsis thaliana) (UniProt Q941L0).
The target of test [2] is CESA6 N-terminal region (N to VR1) (Arabidopsis thaliana) (UniProt Q94JQ6).
The target in test [3] is CESA1 N-terminal region (N to VR1) (Arabidopsis thaliana) (UniProt O48946).

Sequences of proteins named here, by UniProt entry; tags and fusion partners are left off. A change or cut given only in a name is not applied to a line headed by its entry.
UniProt Q941L0: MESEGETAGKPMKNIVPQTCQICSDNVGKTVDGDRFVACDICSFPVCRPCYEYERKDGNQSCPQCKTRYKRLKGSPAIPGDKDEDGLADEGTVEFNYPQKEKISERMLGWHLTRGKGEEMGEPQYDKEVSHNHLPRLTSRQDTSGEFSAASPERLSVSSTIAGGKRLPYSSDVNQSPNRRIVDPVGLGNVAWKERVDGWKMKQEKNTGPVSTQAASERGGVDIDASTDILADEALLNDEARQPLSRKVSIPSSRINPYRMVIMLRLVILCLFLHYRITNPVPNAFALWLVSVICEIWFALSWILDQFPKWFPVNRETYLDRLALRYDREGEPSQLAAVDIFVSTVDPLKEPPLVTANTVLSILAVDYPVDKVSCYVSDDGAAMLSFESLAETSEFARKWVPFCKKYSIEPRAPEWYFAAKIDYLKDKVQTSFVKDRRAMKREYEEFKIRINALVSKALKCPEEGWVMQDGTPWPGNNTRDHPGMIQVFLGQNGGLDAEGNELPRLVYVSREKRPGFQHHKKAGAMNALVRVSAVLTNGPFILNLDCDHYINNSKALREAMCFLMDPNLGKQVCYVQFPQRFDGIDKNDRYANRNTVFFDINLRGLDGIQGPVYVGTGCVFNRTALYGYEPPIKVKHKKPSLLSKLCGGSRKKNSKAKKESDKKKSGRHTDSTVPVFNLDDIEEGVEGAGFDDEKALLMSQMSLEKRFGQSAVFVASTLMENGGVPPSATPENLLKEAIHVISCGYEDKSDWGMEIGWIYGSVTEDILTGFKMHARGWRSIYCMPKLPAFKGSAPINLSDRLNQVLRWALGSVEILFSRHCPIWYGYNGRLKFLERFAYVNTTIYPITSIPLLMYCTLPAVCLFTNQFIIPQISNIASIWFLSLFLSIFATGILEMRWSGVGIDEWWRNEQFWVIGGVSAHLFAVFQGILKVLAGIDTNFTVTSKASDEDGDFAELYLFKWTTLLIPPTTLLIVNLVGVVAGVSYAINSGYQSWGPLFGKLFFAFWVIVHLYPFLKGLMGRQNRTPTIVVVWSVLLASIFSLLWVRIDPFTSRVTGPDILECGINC
UniProt Q94JQ6: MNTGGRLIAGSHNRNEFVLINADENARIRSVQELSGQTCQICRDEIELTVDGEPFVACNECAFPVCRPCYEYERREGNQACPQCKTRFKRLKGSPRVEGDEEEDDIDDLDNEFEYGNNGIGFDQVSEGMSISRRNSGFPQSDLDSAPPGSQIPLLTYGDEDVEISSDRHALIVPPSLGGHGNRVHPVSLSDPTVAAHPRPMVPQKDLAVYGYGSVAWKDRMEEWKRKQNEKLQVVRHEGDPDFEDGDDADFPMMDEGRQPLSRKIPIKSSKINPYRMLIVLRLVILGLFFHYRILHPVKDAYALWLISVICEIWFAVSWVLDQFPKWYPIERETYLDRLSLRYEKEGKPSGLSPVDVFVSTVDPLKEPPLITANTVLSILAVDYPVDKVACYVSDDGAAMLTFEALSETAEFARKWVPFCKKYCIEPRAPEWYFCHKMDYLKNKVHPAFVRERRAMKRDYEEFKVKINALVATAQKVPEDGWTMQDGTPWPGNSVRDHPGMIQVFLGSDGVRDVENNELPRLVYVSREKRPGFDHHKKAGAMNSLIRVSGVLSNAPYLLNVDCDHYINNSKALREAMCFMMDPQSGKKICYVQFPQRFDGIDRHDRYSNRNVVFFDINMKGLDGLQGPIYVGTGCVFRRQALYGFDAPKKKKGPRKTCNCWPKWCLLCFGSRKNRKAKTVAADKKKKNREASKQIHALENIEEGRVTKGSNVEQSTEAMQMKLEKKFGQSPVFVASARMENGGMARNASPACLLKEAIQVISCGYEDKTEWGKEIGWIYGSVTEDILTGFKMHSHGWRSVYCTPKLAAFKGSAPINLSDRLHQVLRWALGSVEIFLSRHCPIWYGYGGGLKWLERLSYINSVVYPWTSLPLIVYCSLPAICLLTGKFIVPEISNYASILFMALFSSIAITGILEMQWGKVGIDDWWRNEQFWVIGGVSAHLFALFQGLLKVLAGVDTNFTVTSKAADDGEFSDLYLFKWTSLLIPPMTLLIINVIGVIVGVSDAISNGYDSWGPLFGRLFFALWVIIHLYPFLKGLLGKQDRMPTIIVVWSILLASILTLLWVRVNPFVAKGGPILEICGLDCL
UniProt O48946: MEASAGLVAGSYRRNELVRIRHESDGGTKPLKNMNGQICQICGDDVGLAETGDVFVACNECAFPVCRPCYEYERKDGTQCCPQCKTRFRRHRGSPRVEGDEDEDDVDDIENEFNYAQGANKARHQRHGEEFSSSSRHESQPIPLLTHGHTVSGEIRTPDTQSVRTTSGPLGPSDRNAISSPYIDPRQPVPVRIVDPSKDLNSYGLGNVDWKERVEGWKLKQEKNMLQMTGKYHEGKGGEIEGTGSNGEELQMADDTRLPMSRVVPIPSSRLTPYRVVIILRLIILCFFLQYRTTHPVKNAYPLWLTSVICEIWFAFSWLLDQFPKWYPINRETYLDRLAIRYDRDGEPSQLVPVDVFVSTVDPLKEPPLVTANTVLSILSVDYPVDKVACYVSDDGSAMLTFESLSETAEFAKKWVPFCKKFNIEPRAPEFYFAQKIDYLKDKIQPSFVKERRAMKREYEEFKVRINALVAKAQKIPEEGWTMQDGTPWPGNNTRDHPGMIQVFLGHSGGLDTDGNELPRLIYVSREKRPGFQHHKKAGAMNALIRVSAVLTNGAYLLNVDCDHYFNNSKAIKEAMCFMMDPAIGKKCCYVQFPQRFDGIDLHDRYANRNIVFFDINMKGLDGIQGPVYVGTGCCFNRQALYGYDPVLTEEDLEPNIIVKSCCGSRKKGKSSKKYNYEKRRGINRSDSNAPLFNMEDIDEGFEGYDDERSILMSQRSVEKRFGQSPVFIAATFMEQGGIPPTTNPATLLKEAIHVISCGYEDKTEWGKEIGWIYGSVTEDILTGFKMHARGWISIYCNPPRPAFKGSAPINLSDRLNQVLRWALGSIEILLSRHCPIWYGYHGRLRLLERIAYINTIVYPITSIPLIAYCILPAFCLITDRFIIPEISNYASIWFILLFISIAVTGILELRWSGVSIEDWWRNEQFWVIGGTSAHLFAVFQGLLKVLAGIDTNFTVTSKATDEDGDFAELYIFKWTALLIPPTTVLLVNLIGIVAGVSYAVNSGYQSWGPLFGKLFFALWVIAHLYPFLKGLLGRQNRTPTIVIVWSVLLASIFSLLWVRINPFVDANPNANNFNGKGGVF
UniProt Q8L778: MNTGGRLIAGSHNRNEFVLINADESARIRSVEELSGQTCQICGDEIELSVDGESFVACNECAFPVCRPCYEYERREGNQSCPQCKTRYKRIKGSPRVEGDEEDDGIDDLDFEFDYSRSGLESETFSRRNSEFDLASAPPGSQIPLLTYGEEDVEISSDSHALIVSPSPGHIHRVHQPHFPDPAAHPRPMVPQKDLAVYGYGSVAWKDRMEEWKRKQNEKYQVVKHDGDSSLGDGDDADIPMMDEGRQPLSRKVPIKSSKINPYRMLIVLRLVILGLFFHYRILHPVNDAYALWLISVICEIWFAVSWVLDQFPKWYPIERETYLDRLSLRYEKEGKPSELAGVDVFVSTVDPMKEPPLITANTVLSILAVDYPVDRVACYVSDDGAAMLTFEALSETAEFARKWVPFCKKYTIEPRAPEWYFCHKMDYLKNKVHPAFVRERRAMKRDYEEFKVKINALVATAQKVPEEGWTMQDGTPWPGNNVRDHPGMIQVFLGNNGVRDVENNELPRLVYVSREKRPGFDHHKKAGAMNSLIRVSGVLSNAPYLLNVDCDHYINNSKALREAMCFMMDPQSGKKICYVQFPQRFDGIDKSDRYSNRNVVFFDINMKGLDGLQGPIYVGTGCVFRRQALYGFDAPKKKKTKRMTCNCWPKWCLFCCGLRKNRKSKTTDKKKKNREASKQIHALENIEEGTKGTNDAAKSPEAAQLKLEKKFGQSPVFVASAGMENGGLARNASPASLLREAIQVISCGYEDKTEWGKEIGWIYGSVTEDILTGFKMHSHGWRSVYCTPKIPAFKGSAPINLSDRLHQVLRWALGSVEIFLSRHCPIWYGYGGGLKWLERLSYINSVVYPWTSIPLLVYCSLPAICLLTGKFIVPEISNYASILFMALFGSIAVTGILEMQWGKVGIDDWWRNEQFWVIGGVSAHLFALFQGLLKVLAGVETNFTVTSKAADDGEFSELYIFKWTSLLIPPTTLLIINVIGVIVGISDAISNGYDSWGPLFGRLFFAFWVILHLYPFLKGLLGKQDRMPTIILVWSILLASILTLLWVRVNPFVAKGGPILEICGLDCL

For three substances, binding results are on record in publication doi:10.1101/2023.10.13.562211.

Results are given in words; binding and its absence hold for the method and conditions named. Binding seen in cells or lysates may run through a third protein. Binding calls can cover weak binding; strength is not graded here.

As to “CESA1 N-terminal region (N to VR1) (from UniProt O48946) (domain or fragment)”, the binding entry in test [1] and in test [2] was “binds” throughout.
For “CESA3 N-terminal region (N to VR1) (from UniProt Q941L0) (domain or fragment)”, the binding entry in test [2] is reported as “binds”.
Turning to “CESA5 N-terminal region (N to VR1), wild type (from UniProt Q8L778) (domain or fragment)”, the binding entry in test [3], in test [1] and in test [2] was “binds” in each case.
